This assay addresses Recombinant full-length HF-TopBP1. The assay is described as follows: pull-down; anti-FLAG antibody beads loaded with recombinant FLAG-tagged protein incubated in Xenopus egg extracts (also mock-depleted) with or without pA-pT; beads immunoblotted; only the target purified. For orientation: Immunoblotting shows a protein as a band on a membrane.

Results are given in words; binding and its absence hold for the method and conditions named. Binding seen in cells or lysates may run through a third protein. Binding calls can cover weak binding; strength is not graded here.

B1: NBS1, endogenous in Xenopus egg extracts (protein, UniProt Q6XV80 1-763)
chain: MWRLVAESAAGGTYHFLTGTDYVVGRKNCAILIPEDQSISRCHATLSVSHPSANLGQTNAASVLSIKDSSKYGTTVNGDKMNPAVPRNLKSGDKVTFGVFNSKYRVEYEPLVVCSSCLDNSEKNSLNQNLIHLGGHVLNNWTEKSTHLVMTSIKVTIKTICALICCKPIIKPDYFCELLHAIQEKRPLPDYRSFIPSVDEPSLTPESLDLSENVKRKSIFKDKVFLFLNAKQYKKLSPAVLFGGGKTDLLMGELKDASVLDNPATCVIDVAMTESQLSESQSTQPWITSTLDLLQSKGLRTIPEAEIGLAVINVSTEIYCNPRRRAASGTEAGTSKKMNVLSSTLCQGIAVDETILPAPTLDITAYAANTEPQDQTGTSWMNISGVREVKETPGNSSSHSRSKGCLQKDPKSGSSSNDLRQTLFREDETDTRKNTPSLLPTKSSARDVTKTSQKLQPTKKIDSYFQSLAKKRDRAEDEKEASSSKLPRVETLSSQTLEEKFPPVTQTLEEENFDSDLDMELAMSCDQILNDSMGSKAAMPEDSTVKKRKVPDDHVVEESDVDSDEGIRANAEQNDTKSDINVTKRRKVDSEIEGTKEPTIKPREIGTKAQVKTNSPEMAPAIRKEIEVKKELDIKKEPKSQWEESKFVPDLQGETDALPSRLLLTEFKSLVVSRPVRNNNATSNSSNGKCHNFKKFKKVAYPGAGSFPNIIGGSDLIAHDRKKNAELEQWLRQEVEEQTQQVREESLAEDLFRYNPKPSKRRR
For the molecule B1, the binding result is given as “binds”.

These data come from paper PMC11642328.
